Source: the supplement of paper PMC11542785
Counter-ions that a name gives are not always drawn. The list shows a part of the results. Most values come without repeats; read them as rough.

Tested on: Drosophila melanogaster DPAGT1 (Alg7) RNAi eye model
Test: eye size Z-score vs DMSO-treated DPAGT1 model flies; higher = larger eye (suppression of DPAGT1 phenotype)
Details: 5 uM

Structure (SMILES)	eye size Z-score	eye size Z-score (female)
CCC1(C)CC(=O)NC(=O)C1 [Bemegride]	-0.74	
CCCC(C)(COC(N)=O)COC(=O)NC(C)C (stereo not given) [Carisoprodol]	0.98	
C[N+]1(C)CCCC(OC(=O)C(O)(c2ccccc2)c2ccccc2)C1 (stereo not given) [Mepenzolate bromide]	-0.86	
OC(c1ccccc1)(c1ccccc1)C1CCNCC1 [Azacyclonol]	0.41	
CCC1(c2ccc(N)cc2)CCC(=O)NC1=O (stereo not given) [Glutethimide, para-amino]	0.73	
CCN(C)C(=O)Oc1cccc([C@H](C)N(C)C)c1 [Rivastigmine]	0.09	
CC[C@@]1([C@@H]2O[C@@H]([C@H]3O[C@@](O)(CO)[C@H](C)C[C@@H]3C)C[C@@H]2C)CC[C@H]([C@]2(C)CC[C@]3(C[C@H](O)[C@@H](C)[C@@H]([C@@H](C)[C@@H](OC)[C@H](C)C(=O)O)O3)O2)O1 [Monensin sodium salt]	0.15	
CN(C)C(=O)Oc1cc(OC(=O)N(C)C)cc(C(O)CNC(C)(C)C)c1 (stereo not given) [Bambuterol hydrochloride]	0.63	
C[C@]12CC[C@H](O)C[C@@H]1CC[C@@H]1[C@@H]2CC[C@]2(C)C(=O)CC[C@@H]12 [Epiandrosterone]	-0.2	
CCn1cc(C(=O)O)c(=O)c2cc3c(cc21)OCO3 [Oxolinic acid]	0.16	
CN1[C@@H]2CC[C@H]1C[C@@H](OC1c3ccccc3CCc3ccccc31)C2 [Deptropine citrate]	0.58	
C[C@]12CC[C@@H]3c4ccc(OC(=O)N(CCCl)CCCl)cc4CC[C@H]3[C@@H]1CC[C@@H]2O [Estramustine]	0.04	
COc1ccc(CCN2CCC(Nc3nc4ccccc4n3Cc3ccc(F)cc3)CC2)cc1 [Astemizole]	0.13	
CC(=O)O[C@H]1C[C@H](O[C@H]2[C@@H](O)C[C@H](O[C@H]3[C@@H](O)C[C@H](O[C@H]4CC[C@@]5(C)[C@H](CC[C@@H]6[C@@H]5C[C@@H](O)[C@]5(C)[C@@H](C7=CC(=O)OC7)CC[C@]65O)C4)O[C@@H]3C)O[C@@H]2C)O[C@H](C)[C@H]1O[C@@H]1O[C@H](CO)[C@@H](O)[C@H](O)[C@H]1O [Lanatoside C]	0	
Oc1cc(Cl)ccc1Oc1ccc(Cl)cc1Cl [Triclosan]	0.53	
C[N+]1([O-])[C@@H]2C[C@@H](OC(=O)[C@H](CO)c3ccccc3)C[C@H]1[C@@H]1O[C@@H]12 (stereo not given in full) [Scopolamin-N-oxide hydrobromide]	-1.37	
CCN(CC)C(C)C(=O)c1ccccc1 (stereo not given) [Amfepramone hydrochloride]	0.96	
COc1ccc(Cc2nccc3cc(OC)c(OC)cc23)cc1OC [Papaverine hydrochloride]	-0.41	
CCC1(CC)C(=O)C=CNC1=O [Pyrithyldione]	0.56	
CC(C)(C)NCC(O)c1cc(Cl)c(N)c(Cl)c1 (stereo not given) [Clenbuterol hydrochloride]	2.09	
Fc1ccc(C(OCCN2CCN(CCCc3ccccc3)CC2)c2ccc(F)cc2)cc1	0.51	
COc1cc([C@@H]2c3cc4c(cc3[C@H](O)[C@H]3COC(=O)[C@H]23)OCO4)cc(OC)c1OC [Podophyllotoxin]	-0.1	

Structure (SMILES)	eye size Z-score	eye size Z-score (female)
CCNC1(c2cccs2)CCCCC1=O (stereo not given) [Tiletamine hydrochloride]	0.01	
C[C@@H]1CC[C@H]2[C@@H](C)C(=O)O[C@@H]3O[C@@]4(C)CC[C@@H]1[C@]32OO4 [Artemisinin]	0.65	
CCC1(c2cccc(O)c2)CCCCN(C)C1 (stereo not given) [Meptazinol hydrochloride]	0.09	
NCCc1c[nH]c2ccc(O)cc12 [Serotonin hydrochloride]	0.57	
CCN(C(C)=O)c1cccc(-c2ccnc3c(C#N)cnn23)c1 [Zaleplon]	-0.88	
CCC(COC(=O)c1cc(OC)c(OC)c(OC)c1)(c1ccccc1)N(C)C (stereo not given) [Trimebutine]	0.56	
CC(=O)OCC1=C(C(=O)O)N2C(=O)[C@@H](N)[C@H]2SC1 [Cephalosporanic acid, 7-amino]	-1.21	
CO[C@]12C[C@@H](COC(=O)c3cncc(Br)c3)CN(C)[C@@H]1Cc1cn(C)c3cccc2c13 [Nicergoline]	-0.23	
C[N+]12CCC(CC1)C(OC(=O)C(O)(c1ccccc1)c1ccccc1)C2 (stereo not given) [Clidinium bromide]	-0.1	
C[C@]12Cc3c[nH]nc3C[C@@H]1CC[C@@H]1[C@@H]2CC[C@@]2(C)[C@H]1CC[C@]2(C)O [Stanozolol]	-0.03	
C#C[C@]1(O)C=C[C@H]2[C@@H]3CCC4=CC(=O)CC[C@@H]4[C@H]3CC[C@@]21CC [Gestodene]	0.62	
CC(C)C[C@H](CN)CC(=O)O [Pregabalin]	-0.22	
CC(C)(C)NCC(O)c1ccccc1Cl (stereo not given) [Tulobuterol Hydrochloride]	-0.47	
CC(C)(C)NCC(O)c1ccccc1Cl (stereo not given) [Tulobuterol hydrochloride]	0.04	
CC(C)c1c(CN(C)C(C)Cc2ccccc2)n(C)n(-c2ccccc2)c1=O (stereo not given) [Famprofazone]	-0.19	
C=C(C)[C@@H]1[C@H]2OC(=O)[C@@H]1[C@]1(O)C[C@H]3O[C@]34C(=O)O[C@H]2[C@]14C [Picrotoxinin]	-0.33	
NC(=O)CN1CCCC1=O [Piracetam]	0.77	
CC(=O)OCC(=O)[C@H]1CC[C@H]2[C@@H]3CC[C@H]4C[C@H](O)CC[C@]4(C)[C@H]3C(=O)C[C@]12C [Alfadolone acetate]	-0.28	
CN1CCN(C(=O)OC2c3nccnc3C(=O)N2c2ccc(Cl)cn2)CC1 (stereo not given) [Zopiclone]		-1.18
Clc1ccc(C(OCCN2CCCCC2)c2ccccc2)cc1 (stereo not given) [Cloperastine hydrochloride]	0	
O=C(O[C@H]1C[N+]2(CCCOc3ccccc3)CCC1CC2)C(O)(c1cccs1)c1cccs1 [Aclidinium bromide]	0.23	
CC(Cc1ccccc1)NCCC(c1ccccc1)c1ccccc1 (stereo not given) [Prenylamine lactate]	0.97	

Structure (SMILES)	eye size Z-score	eye size Z-score (female)
C[C@]12CC[C@H](O)C[C@H]1CC[C@@H]1[C@@H]2C[C@@H](O)[C@]2(C)[C@@H](C3=CC(=O)OC3)CC[C@]12O [Digoxigenin]	-0.16	
NC(=O)C[S+]([O-])C(c1ccccc1)c1ccccc1 (stereo not given) [Modafinil]	-1.1	
CN1C(=O)COc2c(C(=O)NC3CN4CCC3CC4)cc(Cl)cc21 (stereo not given) [Azasetron hydrochloride]	0.74	
Cc1cccc(C)c1NC1=NCCCS1 [Xylazine]		1.11
COc1ccc2c(c1)[C@]13CCCC[C@@H]1[C@H](C2)N(C)CC3 [Dextromethorphan hydrobromide monohydrate]		0.8
C=CC[C@]1(O)CC[C@H]2[C@@H]3CCC4=CC(=O)CCC4=C3C=C[C@@]21C [Altrenogest]	0.3	
CC(Cc1ccc(O)cc1)NCC(O)c1cc(O)cc(O)c1 (stereo not given) [Fenoterol hydrobromide]	0.07	
C1CCc2nnnn2CC1 [Pentylenetetrazole]	0.83	
CC(C)CC(N(C)C)C1(c2ccc(Cl)cc2)CCC1 (stereo not given) [Sibutramine hydrochloride]	-0.01	
O=c1[nH]c2ccccc2n1CCCN1CCC(n2c(=O)[nH]c3cc(Cl)ccc32)CC1 [Domperidone]	0.24	
O=C([O-])c1ccccc1-c1c2cc(Br)c(=O)cc-2oc2[c]([Hg+])c([O-])c(Br)cc12.[Na+].[Na+].[OH-] [Merbromin disodium salt]	0.07	
CC(C)[N+](C)(CCC(C(N)=O)(c1ccccc1)c1ccccc1)C(C)C [Isopropamide iodide]	0.29	
C#C[C@]1(O)CC[C@H]2[C@@H]3CCC4=CC(=O)CC[C@]4(C)[C@H]3CC[C@@]21C [Ethisterone]	0.39	
S=C(NC1CCCCC1)N1CCC(c2cnc[nH]2)CC1 [Thioperamide maleate]	-1.31	
C=CC[C@]1(O)CC[C@H]2[C@@H]3CCC4=CCCC[C@@H]4[C@H]3CC[C@@]21C [Allylestrenol]	-0.51	
C=C[C@H]1CN2CC[C@H]1C[C@H]2[C@H](OC(=O)OCC)c1ccnc2ccc(OC)cc12 [Quinine ethyl carbonate]	0.7	
C[C@]12CC[C@H]3[C@@H](CCC4=CC(=O)CC[C@@H]43)[C@@H]1CC[C@@H]2O [Nandrolone]	1.39	
C[C@]12C=CC(=O)C=C1CC[C@@H]1[C@@H]2CC[C@@]2(C)[C@H]1CC[C@]2(C)O [Methandrostenolone]	0.67	
COc1ccc(CN2CCNCC2)c(OC)c1OC [Trimetazidine dihydrochloride]	0.38	
CC(C)N(CCC(C(N)=O)(c1ccccc1)c1ccccn1)C(C)C (stereo not given) [Disopyramide]	-0.45	
C[C@H](N)[C@H](O)c1ccc(O)c(O)c1 [Levonordefrin]	0.36	
O=[N+]([O-])O[C@@H]1CO[C@H]2[C@@H]1OC[C@@H]2O [Isosorbide mononitrate]	0.1	

Individual results from above.
eye size Z-score with C[C@]12Cc3c[nH]nc3C[C@@H]1CC[C@@H]1[C@@H]2CC[C@@]2(C)[C@H]1CC[C@]2(C)O [Stanozolol] reads -0.03
eye size Z-score with C=C(C)[C@@H]1[C@H]2OC(=O)[C@@H]1[C@]1(O)C[C@H]3O[C@]34C(=O)O[C@H]2[C@]14C [Picrotoxinin] reads -0.33
eye size Z-score with CC(C)C[C@H](CN)CC(=O)O [Pregabalin] reads -0.22
eye size Z-score with C[C@]12C=CC(=O)C=C1CC[C@@H]1[C@@H]2CC[C@@]2(C)[C@H]1CC[C@]2(C)O [Methandrostenolone] reads 0.67

(list continues)

Structure (SMILES)	eye size Z-score	eye size Z-score (female)
CN[C@@H]1C[C@@H](c2ccc(Cl)c(Cl)c2)c2ccccc21 [Indatraline hydrochloride]	0.97	
CN1[C@@H]2CC[C@H]1C[C@@H](OC(=O)[C@H](CO)c1ccccc1)C2 [(L) Hyoscyamine]	-0.47	
CCC(=O)O[C@@](Cc1ccccc1)(c1ccccc1)[C@@H](C)CN(C)C [Levopropoxyphene napsylate]	-0.23	
C[N+](C)(C)CCCCCCCCCC[N+](C)(C)C [Decamethonium bromide]	1.35	
CN1C[C@H](C(=O)N[C@]2(C)O[C@@]3(O)[C@@H]4CCCN4C(=O)[C@H](Cc4ccccc4)N3C2=O)C[C@@H]2c3cccc4[nH]cc(c34)C[C@H]21 [Dihydroergotamine tartrate]	-0.04	
C[N+]1(C)[C@@H]2CC[C@H]1C[C@@H](OC(=O)C(CO)c1ccccc1)C2 (stereo not given in full) [Methylatropine nitrate]	-0.68	
COc1cccc(C2(O)CCCCC2CN(C)C)c1 (stereo not given) [Tramadol hydrochloride]	-0.46	
CC(CCc1ccccc1)NC(C)C(O)c1ccc(O)cc1 (stereo not given) [Nylidrin]	0.55	
CC(=O)OC1CN2CCC1CC2 (stereo not given) [Aceclidine hydrochloride]	-0.75	
CCCN1C[C@H](CSC)C[C@@H]2c3cccc4[nH]cc(c34)C[C@H]21 [Pergolide mesylate]	0.14	
C[C@]12CCC(=O)C=C1CC[C@@H]1[C@@H]2C(=O)C[C@]2(C)C(=O)CC[C@@H]12 [Adrenosterone]	-0.41	
C[N+]1(C)CCOC(O)(c2ccc(-c3ccc(C4(O)C[N+](C)(C)CCO4)cc3)cc2)C1 (stereo not given) [Hemicholinium bromide]	0.46	
Nc1ccncc1 [Dalfampridine]	1.09	
CC[C@@H](C(N)=O)N1CCCC1=O [Levetiracetam]	0.36	
COc1ccc(C(=O)N2CCCC2=O)cc1 [Aniracetam]	-0.15	
CCN[C@@H](C)Cc1cccc(C(F)(F)F)c1 [Dexfenfluramine hydrochloride]	-0.55	
CC(C)=CC1C(C(=O)OCc2cccc(Oc3ccccc3)c2)C1(C)C (stereo not given) [Phenothrin]	1.26	
C[CH2][Hg][S]c1ccccc1C(=O)[O-].[Na+] [Thimerosal]	0.31	
NC(=O)CN1CC(O)CC1=O (stereo not given) [Oxiracetam]	-0.49	
